# Some of the results follow.
# B1: SRS2 (Toxoplasma gondii), O15695 (protein)
# chain: MATRASLARQKTGAACLAVLTASPSVVAAKPWKRWVGVSVILASAFAVGVSAGPPYRYEPEKFTCRPKKGILSQWVSLLYQVQHNITFACEEATPVPTTLISEEHGLMVCAENMTPEECEANPAPLSAFLPGATKEWVTGDSVLTGLKISVPESQYPANAKSFRVGCRHNTKTGNTCMLTIHVEPRDPAVERQEARCSYTENSTLPKIFVTKDSNTMTLACGPHGAPMPESYTENYCSTPDTCDEKPFTSVIPGYLSKWFFGDPKSPLGARVRIPPEQIPSSPQINYFGCTGPTEGEGPKYNCTVPVPLGGGDPSEGSRPGGGSGGGKRGGGQGGGGSLAGFDFRQGSARHSLPSRMALSASALLAMTALAY
# Assays:
# Test in all cases: glycan array binding signal (z-score within array); higher = stronger binding
# Conditions in all cases: glycan notation: IUPAC condensed, linker removed
# Fuc(a1-2)Gal = biological target: Fuc(a1-2)Gal
# How it was run: (§1)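 Arrays were curated from the Consortium for Functional Glycomics database, 3228 in total, and kept only where the protein sequence was available. Binding is expressed as a within-array Z-score. This score was averaged across arrays of the same protein sequence at different concentrations or buffers and across linkers, and negative values can be read as non-binding.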
# Fuc(a1-2)Gal(b1-3)GalNAc = biological target: Fuc(a1-2)Gal(b1-3)GalNAc
# How it was run: as §1
# [1] = biological target: Fuc(a1-2)Gal(b1-3)GalNAc(a1-3)[Fuc(a1-2)]Gal(b1-4)Glc
# How it was run: as §1
# [2] = biological target: Fuc(a1-2)Gal(b1-3)GalNAc(a1-3)[Fuc(a1-2)]Gal(b1-4)GlcNAc
# How it was run: as §1
# [3] = biological target: Fuc(a1-2)Gal(b1-3)GalNAc(b1-3)Gal
# How it was run: as §1
# [4] = biological target: Fuc(a1-2)Gal(b1-3)GalNAc(b1-3)Gal(a1-4)Gal(b1-4)Glc
# How it was run: as §1
# [5] = biological target: Fuc(a1-2)Gal(b1-3)GalNAc(b1-4)[Neu5Ac(a2-3)]Gal(b1-4)Glc
# How it was run: as §1
# Fuc(a1-2)Gal(b1-3)GlcNAc = biological target: Fuc(a1-2)Gal(b1-3)GlcNAc
# How it was run: as §1
# [6] = biological target: Fuc(a1-2)Gal(b1-3)GlcNAc(b1-2)Man(a1-3)[Fuc(a1-2)Gal(b1-3)GlcNAc(b1-2)Man(a1-6)]Man(b1-4)GlcNAc(b1-4)GlcNAc
# How it was run: as §1
# [7] = biological target: Fuc(a1-2)Gal(b1-3)GlcNAc(b1-3)Gal(b1-4)Glc
# How it was run: as §1
# [8] = biological target: Fuc(a1-2)Gal(b1-3)GlcNAc(b1-3)[Fuc(a1-3)[Gal(b1-4)]GlcNAc(b1-6)]Gal(b1-4)Glc
# How it was run: as §1
# [9] = biological target: Fuc(a1-2)Gal(b1-3)[Fuc(a1-4)]GlcNAc
# How it was run: as §1
# [10] = biological target: Fuc(a1-2)Gal(b1-3)[Fuc(a1-4)]GlcNAc(b1-2)Man(a1-3)[Fuc(a1-2)Gal(b1-3)[Fuc(a1-4)]GlcNAc(b1-2)Man(a1-6)]Man(b1-4)GlcNAc(b1-4)GlcNAc
# How it was run: as §1
# [11] = biological target: Fuc(a1-2)Gal(b1-3)[Fuc(a1-4)]GlcNAc(b1-3)[Fuc(a1-3)[Gal(b1-4)]GlcNAc(b1-6)]Gal(b1-4)Glc
# How it was run: as §1
# [12] = biological target: Fuc(a1-2)Gal(b1-3)[Fuc(a1-4)]GlcNAc(b1-3)[Gal(b1-4)GlcNAc(b1-6)]Gal(b1-4)Glc
# How it was run: as §1
# Fuc(a1-2)Gal(b1-4)Glc = biological target: Fuc(a1-2)Gal(b1-4)Glc
# How it was run: as §1
# Fuc(a1-2)Gal(b1-4)Glc6S = biological target: Fuc(a1-2)Gal(b1-4)Glc6S
# How it was run: as §1
# Fuc(a1-2)Gal(b1-4)GlcNAc = biological target: Fuc(a1-2)Gal(b1-4)GlcNAc
# How it was run: as §1
# [13] = biological target: Fuc(a1-2)Gal(b1-4)GlcNAc(b1-2)Man(a1-3)[Fuc(a1-2)Gal(b1-4)GlcNAc(b1-2)Man(a1-6)]Man(b1-4)GlcNAc(b1-4)GlcNAc
# How it was run: as §1
# [14] = biological target: Fuc(a1-2)Gal(b1-4)GlcNAc(b1-3)Gal(b1-4)GlcNAc
# How it was run: as §1
# [15] = biological target: Fuc(a1-2)Gal(b1-4)GlcNAc(b1-3)Gal(b1-4)GlcNAc(b1-3)Gal(b1-4)GlcNAc
# How it was run: as §1
# [16] = biological target: Fuc(a1-2)Gal(b1-4)GlcNAc(b1-3)GalNAc
# How it was run: as §1
# [17] = biological target: Fuc(a1-2)Gal(b1-4)GlcNAc6S
# How it was run: as §1
# [18] = biological target: Fuc(a1-2)Gal(b1-4)[Fuc(a1-3)]GlcNAc
# How it was run: as §1
# [19] = biological target: Fuc(a1-2)Gal(b1-4)[Fuc(a1-3)]GlcNAc(b1-2)Man(a1-3)[Fuc(a1-2)Gal(b1-4)[Fuc(a1-3)]GlcNAc(b1-2)Man(a1-6)]Man(b1-4)GlcNAc(b1-4)GlcNAc
# How it was run: as §1
# [20] = biological target: Fuc(a1-2)Gal(b1-4)[Fuc(a1-3)]GlcNAc(b1-3)Gal(b1-4)[Fuc(a1-3)]GlcNAc
# How it was run: as §1
# [21] = biological target: Fuc(a1-2)Gal(b1-4)[Fuc(a1-3)]GlcNAc(b1-3)Gal(b1-4)[Fuc(a1-3)]GlcNAc(b1-3)Gal(b1-4)[Fuc(a1-3)]GlcNAc
# How it was run: as §1
# Fuc(a1-2)Gal6S(b1-4)Glc = biological target: Fuc(a1-2)Gal6S(b1-4)Glc
# How it was run: as §1
# [22] = biological target: Fuc(a1-2)Gal6S(b1-4)Glc6S
# How it was run: as §1
# [23] = biological target: Fuc(a1-2)Gal6S(b1-4)GlcNAc
# How it was run: as §1
# Fuc(a1-2)[Gal(a1-3)]Gal = biological target: Fuc(a1-2)[Gal(a1-3)]Gal
# How it was run: as §1
# [24] = biological target: Fuc(a1-2)[Gal(a1-3)]Gal(b1-3)GlcNAc
# How it was run: as §1
# [25] = biological target: Fuc(a1-2)[Gal(a1-3)]Gal(b1-3)GlcNAc(b1-2)Man(a1-3)[Fuc(a1-2)[Gal(a1-3)]Gal(b1-3)GlcNAc(b1-2)Man(a1-6)]Man(b1-4)GlcNAc(b1-4)GlcNAc
# How it was run: as §1
# [26] = biological target: Fuc(a1-2)[Gal(a1-3)]Gal(b1-4)Glc
# How it was run: as §1
# [27] = biological target: Fuc(a1-2)[Gal(a1-3)]Gal(b1-4)GlcNAc
# How it was run: as §1
# [28] = biological target: Fuc(a1-2)[Gal(a1-3)]Gal(b1-4)GlcNAc(b1-2)Man(a1-3)[Fuc(a1-2)[Gal(a1-3)]Gal(b1-4)GlcNAc(b1-2)Man(a1-6)]Man(b1-4)GlcNAc(b1-4)GlcNAc
# How it was run: as §1
# [29] = biological target: Fuc(a1-2)[Gal(a1-3)]Gal(b1-4)[Fuc(a1-3)]GlcNAc
# How it was run: as §1
# [30] = biological target: Fuc(a1-2)[Gal(a1-4)]Gal(b1-4)GlcNAc
# How it was run: as §1
# [31] = biological target: Fuc(a1-2)[GalNAc(a1-3)]Gal
# How it was run: as §1
# [32] = biological target: Fuc(a1-2)[GalNAc(a1-3)]Gal(b1-3)GalNAc(a1-3)[Fuc(a1-2)]Gal(b1-4)GlcNAc
# How it was run: as §1
# [33] = biological target: Fuc(a1-2)[GalNAc(a1-3)]Gal(b1-3)GlcNAc
# How it was run: as §1
# [34] = biological target: Fuc(a1-2)[GalNAc(a1-3)]Gal(b1-3)GlcNAc(b1-2)Man(a1-3)[Fuc(a1-2)[GalNAc(a1-3)]Gal(b1-3)GlcNAc(b1-2)Man(a1-6)]Man(b1-4)GlcNAc(b1-4)GlcNAc
# How it was run: as §1
# [35] = biological target: Fuc(a1-2)[GalNAc(a1-3)]Gal(b1-4)Glc
# How it was run: as §1
# [36] = biological target: Fuc(a1-2)[GalNAc(a1-3)]Gal(b1-4)GlcNAc
# How it was run: as §1
# [37] = biological target: Fuc(a1-2)[GalNAc(a1-3)]Gal(b1-4)GlcNAc(b1-2)Man(a1-3)[Fuc(a1-2)[GalNAc(a1-3)]Gal(b1-4)GlcNAc(b1-2)Man(a1-6)]Man(b1-4)GlcNAc(b1-4)GlcNAc
# How it was run: as §1
binder,measurement,setting,value
B1,glycan array binding signal (z-score),Fuc(a1-2)Gal,0.535
same,glycan array binding signal (z-score),Fuc(a1-2)Gal(b1-3)GalNAc,0.187
same,glycan array binding signal (z-score),[1],-0.306
same,glycan array binding signal (z-score),[2],0.792
same,glycan array binding signal (z-score),[3],-0.963
same,glycan array binding signal (z-score),[4],0.231
same,glycan array binding signal (z-score),[5],-0.451
same,glycan array binding signal (z-score),Fuc(a1-2)Gal(b1-3)GlcNAc,0.051
same,glycan array binding signal (z-score),[6],0.704
same,glycan array binding signal (z-score),[7],-0.479
same,glycan array binding signal (z-score),[8],0.061
same,glycan array binding signal (z-score),[9],-0.636
same,glycan array binding signal (z-score),[10],0.148
same,glycan array binding signal (z-score),[11],0.122
same,glycan array binding signal (z-score),[12],-0.45
same,glycan array binding signal (z-score),Fuc(a1-2)Gal(b1-4)Glc,-0.631
same,glycan array binding signal (z-score),Fuc(a1-2)Gal(b1-4)Glc6S,0.222
same,glycan array binding signal (z-score),Fuc(a1-2)Gal(b1-4)GlcNAc,-0.585
same,glycan array binding signal (z-score),[13],1.07
same,glycan array binding signal (z-score),[14],0.699
same,glycan array binding signal (z-score),[15],-0.192
same,glycan array binding signal (z-score),[16],-0.7
same,glycan array binding signal (z-score),[17],0.345
same,glycan array binding signal (z-score),[18],0.367
same,glycan array binding signal (z-score),[19],0.238
same,glycan array binding signal (z-score),[20],-0.404
same,glycan array binding signal (z-score),[21],-0.401
same,glycan array binding signal (z-score),Fuc(a1-2)Gal6S(b1-4)Glc,-0.803
same,glycan array binding signal (z-score),[22],0.237
same,glycan array binding signal (z-score),[23],0.801
same,glycan array binding signal (z-score),Fuc(a1-2)[Gal(a1-3)]Gal,0.029
same,glycan array binding signal (z-score),[24],-0.586
same,glycan array binding signal (z-score),[25],-0.83
same,glycan array binding signal (z-score),[26],-0.233
same,glycan array binding signal (z-score),[27],-0.294
same,glycan array binding signal (z-score),[28],0.098
same,glycan array binding signal (z-score),[29],0.068
same,glycan array binding signal (z-score),[30],-0.255
same,glycan array binding signal (z-score),[31],0.017
same,glycan array binding signal (z-score),[32],0.472
same,glycan array binding signal (z-score),[33],0.735
same,glycan array binding signal (z-score),[34],-0.13
same,glycan array binding signal (z-score),[35],-0.13
same,glycan array binding signal (z-score),[36],0.698
same,glycan array binding signal (z-score),[37],1.07

# Exported with tabs: part of the list above
binder	measurement	setting	value
B1	glycan array binding signal (z-score)	[16]	-0.7
same	glycan array binding signal (z-score)	[17]	0.345
same	glycan array binding signal (z-score)	[18]	0.367
same	glycan array binding signal (z-score)	[19]	0.238
same	glycan array binding signal (z-score)	[20]	-0.404
same	glycan array binding signal (z-score)	[21]	-0.401
same	glycan array binding signal (z-score)	Fuc(a1-2)Gal6S(b1-4)Glc	-0.803
same	glycan array binding signal (z-score)	[22]	0.237
same	glycan array binding signal (z-score)	[23]	0.801
same	glycan array binding signal (z-score)	Fuc(a1-2)[Gal(a1-3)]Gal	0.029
